Ends that are not written are not given here.
Each substance was assayed on variety of bacteria (Va, As, C621, C587, C610, K799, Z61) (assay: Rank of peptides over the MIC results in Mueller Hinton Broth). Details: rank among the ten peptides, 1 = best.
Type: cell-based

**Q.** How did the Rank turn out when ALWKTMLKKAAHVGKHVGKAALGAAARRRK [DER-M] was run?
**A.** 7

**Q.** Which Rank does the source give for “KGWGSFFKKAAHVGKHVGKAALTHYL-NH2 [Peptide P-1-CN]” here?
**A.** 1

**Q.** How did the Rank turn out when GWGSFFKKAAHVGKHVGKAALGAAARRRK [P-M] was run?
**A.** 5

**Q.** With “RQRVEELSKFSKKGAAARRRK [Peptide M-0, reference compound]” as the substance, how does the Rank read?
**A.** 10

**Q.** For SIGSAFKKAAHVGKHVGKAALTHYL-NH2 [P-CER], which Rank is on record?
**A.** 8

**Q.** Which Rank does the source give for “KGWGSFFKKAAHVGKHVGKAALTHYL [Peptide P-1]” here?
**A.** 4

**Q.** With GWGSFFKKAAHVGKHVGKAALTHYL-NH2 [P-CN] as the substance, how does the Rank read?
**A.** 2

**Q.** For ALWKTMLKKAAHVGKHVGKAALTHYL-NH2 [P-DER], which Rank is on record?
**A.** 3

**Q.** “GWGSFFKKAAHVGKHVGKAALTHYL [Peptide P-0, reference compound]” was tested. Which Rank did it give?
**A.** 6

**Q.** Which Rank does the source give for SIGSAFKKAAHVGKHVGKAALGAAARRRK [CER-M] here?
**A.** 9

Source: patent US6818407B2, “Anti-endotoxic antimicrobial cationic peptides and methods of use therfor” (priority 1998, dated 2004)
